The target in assay [1] is T1, Neogenin-1 (human (endogenous in SK-N-SH)) (UniProt Q92859).
T1 sequence: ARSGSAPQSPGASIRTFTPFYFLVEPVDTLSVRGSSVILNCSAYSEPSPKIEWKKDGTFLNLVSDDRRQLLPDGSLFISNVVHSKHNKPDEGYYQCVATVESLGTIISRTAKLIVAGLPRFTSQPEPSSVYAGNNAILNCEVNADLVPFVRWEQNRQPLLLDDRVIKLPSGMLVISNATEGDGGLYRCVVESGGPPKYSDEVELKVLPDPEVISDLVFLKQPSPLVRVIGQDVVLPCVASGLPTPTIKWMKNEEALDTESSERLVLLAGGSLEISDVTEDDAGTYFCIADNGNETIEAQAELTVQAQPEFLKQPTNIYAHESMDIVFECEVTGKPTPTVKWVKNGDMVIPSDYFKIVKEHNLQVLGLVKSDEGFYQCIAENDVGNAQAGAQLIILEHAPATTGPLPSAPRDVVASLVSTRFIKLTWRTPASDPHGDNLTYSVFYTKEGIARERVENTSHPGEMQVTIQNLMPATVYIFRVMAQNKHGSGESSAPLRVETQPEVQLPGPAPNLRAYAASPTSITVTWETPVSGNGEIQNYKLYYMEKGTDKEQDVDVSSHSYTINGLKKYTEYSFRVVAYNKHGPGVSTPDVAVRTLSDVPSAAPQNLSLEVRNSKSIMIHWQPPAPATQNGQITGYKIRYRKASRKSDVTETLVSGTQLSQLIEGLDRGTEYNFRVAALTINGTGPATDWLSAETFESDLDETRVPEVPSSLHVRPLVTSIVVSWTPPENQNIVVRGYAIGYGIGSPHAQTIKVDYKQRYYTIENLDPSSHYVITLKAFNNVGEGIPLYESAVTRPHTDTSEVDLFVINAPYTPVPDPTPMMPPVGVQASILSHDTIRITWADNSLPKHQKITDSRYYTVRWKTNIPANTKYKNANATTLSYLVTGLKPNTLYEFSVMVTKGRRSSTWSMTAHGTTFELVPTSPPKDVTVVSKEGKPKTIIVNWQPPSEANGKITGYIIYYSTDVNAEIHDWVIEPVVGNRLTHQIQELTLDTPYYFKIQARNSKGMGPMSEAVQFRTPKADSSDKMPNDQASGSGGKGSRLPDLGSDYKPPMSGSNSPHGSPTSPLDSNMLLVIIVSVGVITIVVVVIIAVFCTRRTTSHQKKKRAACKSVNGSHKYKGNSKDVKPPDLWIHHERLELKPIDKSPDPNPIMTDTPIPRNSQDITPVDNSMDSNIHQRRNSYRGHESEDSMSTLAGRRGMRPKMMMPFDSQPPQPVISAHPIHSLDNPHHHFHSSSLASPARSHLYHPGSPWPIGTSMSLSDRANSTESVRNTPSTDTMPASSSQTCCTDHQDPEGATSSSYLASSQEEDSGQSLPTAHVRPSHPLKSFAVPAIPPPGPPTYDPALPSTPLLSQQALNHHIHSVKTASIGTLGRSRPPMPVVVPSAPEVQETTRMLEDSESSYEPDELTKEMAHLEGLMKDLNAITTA
Description: co-IP; endogenous proteins in SK-N-SH cell extract (20 mM Tris pH 7.4, 150 mM NaCl, 1% NP-40, protease inhibitors; 1000 μg total protein); precipitated 1 h with anti-LMγ1 (MAB1920) or anti-NEO1 (H-175) on Dynabeads protein A; Western blot against NEO1 and LMγ1. For orientation: In western blotting, separated proteins are transferred to a membrane and probed.

Protein sequences, listed by entry. Tags and fused reporters are not part of them. Residues count along the entry.
UniProt P11047, residues 34-1609: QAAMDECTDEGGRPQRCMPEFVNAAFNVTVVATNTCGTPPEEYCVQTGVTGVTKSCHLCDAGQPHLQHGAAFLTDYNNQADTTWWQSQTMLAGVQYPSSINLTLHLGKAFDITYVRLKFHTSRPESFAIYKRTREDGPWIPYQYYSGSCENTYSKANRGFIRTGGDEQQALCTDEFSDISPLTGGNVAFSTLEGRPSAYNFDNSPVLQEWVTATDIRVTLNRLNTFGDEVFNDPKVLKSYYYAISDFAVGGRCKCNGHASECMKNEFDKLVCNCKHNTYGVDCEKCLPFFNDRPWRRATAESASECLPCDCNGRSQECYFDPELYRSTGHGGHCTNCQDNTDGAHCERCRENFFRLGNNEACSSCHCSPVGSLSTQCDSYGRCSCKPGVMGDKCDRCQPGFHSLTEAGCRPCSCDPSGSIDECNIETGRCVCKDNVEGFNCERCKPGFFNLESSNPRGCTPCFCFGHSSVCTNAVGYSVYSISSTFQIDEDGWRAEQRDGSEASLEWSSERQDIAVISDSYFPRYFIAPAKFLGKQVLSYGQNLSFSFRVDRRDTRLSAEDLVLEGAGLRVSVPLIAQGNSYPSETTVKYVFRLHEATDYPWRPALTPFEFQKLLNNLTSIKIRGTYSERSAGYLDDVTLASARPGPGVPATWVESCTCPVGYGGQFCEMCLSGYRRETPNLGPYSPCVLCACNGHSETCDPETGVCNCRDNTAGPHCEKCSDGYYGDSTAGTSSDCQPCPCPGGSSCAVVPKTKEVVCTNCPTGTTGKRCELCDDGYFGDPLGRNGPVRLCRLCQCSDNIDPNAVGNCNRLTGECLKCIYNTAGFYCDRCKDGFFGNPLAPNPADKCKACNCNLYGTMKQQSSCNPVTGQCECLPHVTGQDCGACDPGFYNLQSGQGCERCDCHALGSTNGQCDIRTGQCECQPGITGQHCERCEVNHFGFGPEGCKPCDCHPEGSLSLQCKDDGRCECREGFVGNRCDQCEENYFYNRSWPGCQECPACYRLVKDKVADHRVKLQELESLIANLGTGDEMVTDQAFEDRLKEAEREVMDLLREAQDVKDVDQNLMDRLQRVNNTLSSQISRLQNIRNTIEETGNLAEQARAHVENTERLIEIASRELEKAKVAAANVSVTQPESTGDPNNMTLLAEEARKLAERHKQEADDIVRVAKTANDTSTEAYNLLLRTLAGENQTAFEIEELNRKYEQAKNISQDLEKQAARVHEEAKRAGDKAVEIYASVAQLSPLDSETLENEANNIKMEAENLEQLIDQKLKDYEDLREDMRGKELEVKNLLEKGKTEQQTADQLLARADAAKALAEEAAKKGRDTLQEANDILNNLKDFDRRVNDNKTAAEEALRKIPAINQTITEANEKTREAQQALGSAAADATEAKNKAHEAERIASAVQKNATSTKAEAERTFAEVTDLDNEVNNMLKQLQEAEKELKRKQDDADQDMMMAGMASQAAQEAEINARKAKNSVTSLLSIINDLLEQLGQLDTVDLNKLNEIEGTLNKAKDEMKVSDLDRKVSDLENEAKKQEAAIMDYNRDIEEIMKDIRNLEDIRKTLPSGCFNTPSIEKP

The target of assay [2] is Laminin γ1 (human (endogenous in SK-N-SH)) (UniProt P11047). The assay is described as above.

These are yes or no findings as the source states them, for the method shown. In cells and extracts the contact can be indirect. Some entries that bind do so weakly or less than the wild type.

For “Laminin γ1 (from UniProt P11047 34-1609)”, the binding entry in assay [1] is recorded as “binds”.

B1: Neogenin-1 (receptor, UniProt Q92859 34-1461)
chain: T1 sequence
As to B1, the binding result in assay [2] is reported as “binds”.

These data come from publication PMC6527380.
